From patent US20210253598A1, “ARYL ANNULATED MACROCYCLIC INDOLE DERIVATIVES” (priority 2017, published 2021)
For part of its entries the source gives two or more results. The other results are left out here. The source may hold further records. Values given together do not match, cause unknown; some may be repeats, others may stem from another dose, organism or construct than stated.

Test system: MV-4-11
Test: Anti-proliferative effect in MV-4-11 cells, CellTiter-Glo (Assay 7)
Conditions: read-out: Antiproli MV-4-11, MV-4-11, 72 hours incubation, several values per example

Q: How did the IC50 turn out when `Cc1c2c(nn1C)COCc1ncccc1Cn1c(C(=O)O)c(CCCOc3cccc4ccccc34)c3ccc(Cl)c-2c31` was run?
A: The IC50 was 3.34 µM and 6.69 µM.
